Test system: AhR aryl hydrocarbon receptor
Test: comparison of IR spectral peak structures of chemical agent and vicinity of AhR active center
Settings: IR spectrum of chemical agent vs AhR receptor

| SMILES | difference in frequencies giving peak structures |
| --- | --- |
| Clc1cc2c(cc1Cl)Oc1cc(Cl)c(Cl)cc1O2 [2,3,7,8-TCDD] | about 35 cm^−1 |
| O=C1/C(=C2\Nc3ccccc3C2=O)Nc2ccccc21 [indigo] | about 35 cm^−1 |
